PubChem BioAssay AID1259308 | NCATS | 2017

Screen: 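Genes whose loss raises luciferase production in HEK293 cells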 (primary screen)
Cells: human HEK293 embryonic kidney cells stably expressing firefly luciferase (HEK-CMV-Luc2-Hygro)
Reagent: single siRNA against human genes, 0.8 pmol siRNA per well
Timing: 72 h
Measured: 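Reporter luminescence and viable-cell signal on separate replicate plates, given as percent of non-targeting control and median/MAD z-scores, plus per-cell luciferase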
Reading the numbers: total luciferase, z-score: higher = more reporter protein produced
Active means: 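Active when the median/MAD z-score for overall luciferase is greater than 3; a gene was taken forward for validation with new siRNAs if at least two of its three siRNAs passed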
Meaning of the calls: active = raised luciferase; inactive = no rise
The deposit covers about 59,000 reagents; shown is an unselected part. About 1,510 of all reagents (2.6%) count as active. 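Calls use total luciferase alone and ignore viability, so some active siRNAs may act by altering cell number.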 The numbers tell different reagents against one gene apart. Not all columns of the deposit are shown.

For PTPRA (protein tyrosine phosphatase receptor type A) #1, what does the deposit list?
total luciferase, z-score: -0.0288; call: inactive

For PTPRA (protein tyrosine phosphatase receptor type A) #2, what does the deposit list?
total luciferase, z-score: -0.369; call: inactive

For PTPRA (protein tyrosine phosphatase receptor type A) #3, how do the results read?
total luciferase, z-score: 1.24; call: inactive

How did the screen score KRTAP4-11 (keratin associated protein 4-11) #1?
total luciferase, z-score: -0.659; call: inactive

With KRTAP4-11 (keratin associated protein 4-11) #2, what was measured?
total luciferase, z-score: 1.66; call: inactive

With KRTAP4-11 (keratin associated protein 4-11) #3, how do the results read?
total luciferase, z-score: -1.43; call: inactive

Sorted by “total luciferase, z-score” (lowest first): 2 of the entries above.
PTPRA (protein tyrosine phosphatase receptor type A) #2 — total luciferase, z-score = -0.369; call = inactive
PTPRA (protein tyrosine phosphatase receptor type A) #1 — total luciferase, z-score = -0.0288; call = inactive

Continued.
What did the screen give for F2RL3 (F2R like thrombin or trypsin receptor 3) #1?
total luciferase, z-score: 1.02; call: inactive

What is on record for F2RL3 (F2R like thrombin or trypsin receptor 3) #2?
total luciferase, z-score: -1.21; call: inactive

With F2RL3 (F2R like thrombin or trypsin receptor 3) #3, how do the results read?
total luciferase, z-score: -0.103; call: inactive

What did the screen give for RHOF (ras homolog family member F, filopodia associated) #1?
total luciferase, z-score: 0.513; call: inactive

With RHOF (ras homolog family member F, filopodia associated) #2, how do the results read?
total luciferase, z-score: 1.6; call: inactive

For RHOF (ras homolog family member F, filopodia associated) #3, what does the deposit list?
total luciferase, z-score: 0.0988; call: inactive
